Data on five molecules can be found in publication doi:10.1101/156059.

Chains of the proteins cited; added tags and fusions are not shown. Lines headed by an entry give the natural chain unless they say otherwise; changes in a name come on top.
UniProt Q8BP22: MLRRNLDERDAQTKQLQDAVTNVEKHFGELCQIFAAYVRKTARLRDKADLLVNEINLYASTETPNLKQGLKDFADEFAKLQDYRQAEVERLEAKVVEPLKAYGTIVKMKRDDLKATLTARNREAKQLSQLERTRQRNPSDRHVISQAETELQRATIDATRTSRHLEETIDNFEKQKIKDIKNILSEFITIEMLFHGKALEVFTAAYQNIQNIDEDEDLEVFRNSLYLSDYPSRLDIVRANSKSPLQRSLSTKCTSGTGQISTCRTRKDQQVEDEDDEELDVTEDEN

Results are given in words; binding and its absence hold for the method and conditions named. Binding seen in cells or lysates may run through a third protein. A yes stands for co-enrichment or nearness to the bait. Other partners may have been found.

Assay in all cases: affinity purification with mass spectrometry
Assay [1] deals with FAM92A-LAP (mouse) (UniProt Q8BP22).
Assay [2] deals with 1600002H07Rik-LAP (mouse).
The target of assay [3] is T1, TTC23-LAP (mouse) (UniProt Q8CHY7).
T1 sequence: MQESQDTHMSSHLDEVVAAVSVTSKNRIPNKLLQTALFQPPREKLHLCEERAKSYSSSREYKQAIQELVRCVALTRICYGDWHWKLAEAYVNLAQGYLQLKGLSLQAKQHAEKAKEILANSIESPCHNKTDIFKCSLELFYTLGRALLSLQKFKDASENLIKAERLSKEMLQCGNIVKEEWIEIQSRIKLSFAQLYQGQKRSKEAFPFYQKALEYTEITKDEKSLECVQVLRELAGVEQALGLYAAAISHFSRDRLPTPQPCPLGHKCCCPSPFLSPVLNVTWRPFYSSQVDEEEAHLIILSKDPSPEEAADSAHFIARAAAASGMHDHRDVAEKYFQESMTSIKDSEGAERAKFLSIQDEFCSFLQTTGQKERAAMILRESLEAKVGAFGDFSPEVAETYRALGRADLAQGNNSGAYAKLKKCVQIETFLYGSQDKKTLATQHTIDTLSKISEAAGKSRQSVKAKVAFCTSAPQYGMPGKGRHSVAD

Assay [4] has as its target T2, δ-tubulin (TUBD1) (mouse (endogenous in IMCD3)) (UniProt Q9R1K7).
T2 sequence: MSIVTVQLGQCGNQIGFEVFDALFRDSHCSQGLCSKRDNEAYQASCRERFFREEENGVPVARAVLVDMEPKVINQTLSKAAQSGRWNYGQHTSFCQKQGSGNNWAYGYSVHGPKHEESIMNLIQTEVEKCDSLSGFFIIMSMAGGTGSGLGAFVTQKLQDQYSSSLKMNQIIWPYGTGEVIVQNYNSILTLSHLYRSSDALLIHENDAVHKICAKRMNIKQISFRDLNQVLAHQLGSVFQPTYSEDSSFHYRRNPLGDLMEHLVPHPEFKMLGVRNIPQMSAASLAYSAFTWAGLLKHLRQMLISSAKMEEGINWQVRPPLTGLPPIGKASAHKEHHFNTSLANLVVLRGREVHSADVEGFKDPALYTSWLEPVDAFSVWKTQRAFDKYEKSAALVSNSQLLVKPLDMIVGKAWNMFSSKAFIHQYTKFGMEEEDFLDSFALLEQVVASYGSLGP

B1: DZIP1L (protein, UniProt Q499E4 1-774)
chain: MQYPAATAEGLSGPLSGAYTLPAFKFQPRRESIDWRRISAVDVDRVARELDVATLQENIAGVTFCNLDGEVCNHCRQPVDPVLLKVLRLAQLIIEYLLHCQDCLSASVAQLEARLQASLGQQQRGQQELGRQADELKGVREESRRRRKMISTLQQLLLQTSAHSYHTCHLCDKTFMNATFLRGHIQRRHAGMADVGKQKQEQPLGEVLEELRAKLKWTQGELEAQREAERQRQVQELEMARQREMEAKKKFDEWKEKERSKLYGEIDKLKQLFWDEFKTVANQNSTLEEKLKALQSYSMTESHLGSLRDEESEERLKHAQEVQALQEKMEVQKTEWKRKMKALHEERAAERRQLQEENERLHVSLSQDQKKAAAQSQRHINALRAQLQEQARLIESQEETIQTLSLRKVEEVQEMPKAVATEEDSSEEELEASLEERQEQRKVLAALRKNPTWLKQFRPILEDTLEEKLEGLGIKRDTKGISAQTVRRLEPLLRTQREQIARSFREFPSLREKLNKEVSSRVKQRWESTTQPDGQPPVKSQRVTLATREVRPKTRTLTVALPSKPAEPSTPTLQGHSSHGPGLTQVSTPIPRPRVHGPSSTPVSPGSGLSSTPPFSSEEEPEGDVVQRVSLQPPKVLPRSAAKPEDNWGWSDSETSEESAQPPGKGSGGLASSGTLVQSIVKNLEKQLETPAKKPSGGVNMFLRPNAALQRASTPARKSQLSEDESDVEISSLEDLSQDLGQKGKPKPLSHSKLPEKFDVSPWSSGSRPRIPGW
B1: in assay [1], the binding result is on record as “binds”.

B2: δ-tubulin (TUBD1) (protein, UniProt Q9R1K7 1-455)
chain: T2 sequence
With B2, the binding result in assay [2] is reported as “binds”.

B3: EFCAB7 (protein, UniProt Q8VDY4 1-628)
chain: MASNPGSDAALGTQNPLLSGSPRTKKFPLTEQEVFYMNCRAAYLTIFKSSLENIISKDQLYLALQHAGRNPSQKTINKYWTPQTAKLNFDDFCIILSKEKPTSKAELLKSFKKLDVNDDGAILHSDLQKYLTKRGEKMTQEEVNAVINLADINANGKFDYVKFCKLYMTTSEQCLKTTLERLEADSKLRRQQFGSHMEGSPERGPSPAPKPSPRVIRKNDQETFSSKGDTSHALLSTTRKFKTSVSFTMTMSANSNQDSTLTEPNLKDWQCAQSKGCFFLEEDGEVVSHQYKMHIAQRSVLYLTIKPLYLSQVEGKRCPWLSVDTALYILKKNENPAEPQLMCFTELRNREVFGWTGELEAGIYWLIPSTTGCRLKKETKPVTEEAQLVHRDETGELSLTSEFRSTLSEIFEVIDLDGNGLISLEEYNFFELRTSGEKCDEDAWAVCRENFDTKKNELTRQGFMDLHLMEANDREGDPLDLWVTLHSMGYNKALELTEACPFVINIYAERCKPRIKVVHMEACSGQLEKAICKSVLDRSDAKVMDGYENIIVHTCNYDTWITSIIENKSDNKVIIHINNELSKNCVNNRGLNIFAVEVAPRSTMVCQHVMPLNEQEEWIYCCVYSLVA
As for B3, the binding entry in assay [3] is on record as “binds”.

B4: ε-tubulin (TUBE1) (protein, UniProt Q9D6T1 1-475)
chain: MTQSVVVQVGQCGNQIGCCFWDLALREHAAVNQKGIYDDAISSFFRNVDTRAVGDGGSISKGRISSLKARAVLIDMEEGVVNEILQGPLRDVFDSKQLITDISGSGNNWAVGHKVFGCLYREQILEKLRKSAEQCDCLQCFFIIHSMGGGTGSGLGTFLLKVLEDEFPEVYRFVTAVYPSSEDDVITSPYNSMLAMKELNEHADCVLPIDNQSLFDIISKIDLVVNSGKLGSAVKPKSLITSNMGAVKKHHKKPFDAMNNIVANLLLSLTSSARFEGSLNMDLNEISMNLVPFPKLHYLVSSLTPLYTLADVNIPPRRLDQMFSDAFSKDHQLIQADPRHSLYLACALIVRGNVQISDLRRNIERLKPALQFVSWNQEGWKTSLCSVPPVGHSHSLLALANNTCVKPTFMELRERFTRLYKKKAHLHHYLQVDGMEESTFTEAVSSLSALIQEYSDLDATKSLPVPDVPRLSVAL
Turning to B4, the binding entry in assay [2] and in assay [4] was “binds” throughout.

B5: IQCE (protein, UniProt Q6PCQ0 1-778)
chain: MSLGTTDIASETGDDSLSAITFESDIESKTKRKSFHKPPSTSPKSPYYSKPRKVTSWRSLKTAGSMPLSSRMSLTPQKLWLGSSKQGSVAQPPSPTLTSEHAWTHPPSCTPDYLTEAVRAKRADLRRSGSHGHVSGTSVYREKEDMYDEIIELKKSLHMQKSDVDLMRTKLRRLEEENSRKDRQIEQLLDPSRGPDFVRTLAEKKPDTGWVITGLKQRIFRLEQQCKEKDNTINKLQTDMKTTNLEEMRIAMETYYEEIHRLQTLLASSEATGKKPMVEKKLGVKRQKKMSSALLNLTRSVQELTEENQSLKEDLDRMLSNSPTISKIKGYGDWSKPRLLRRIAELEKKVSSSESPKQSTSELVNPNPLVRSPSNISVQKQPKGDQSPEDLPKVAPCEEQEHLQGTVKSLREELGALQEQLLEKDLEMKQLLQSKIDLEKELETAREGEKGRQEQEQALREEVEALTKKCQELEEAKREEKNSFVAVTHEAHPELHAPSPCSRHSEPDSDNSAGEEGSSQPPAPCSEERREAAIRTLQAQWKAHRRKKREAALDEAATVLQAAFRGHLARSKLVRSKVPDSRSPSLPGLLSPLNQSSPAPRVLSPISPAEENPTQEEAVIVIQSILRGYLAQARFIASCCREIAASSQRETVSLTPSGSASPPSLRASPGVIRKELCASEELRETSASEPAPSVPYSAQGGHGDCPSSSSLEAVPSMKDAMCEERSSSPRSAGPSLAEPSPPELQPLSPPPVEDICSDDSDDIIFSPFLPRKKSPSPF
With B5, the binding result in assay [3] is given as “binds”.
